Experimental data taken from article PMC10941358.
Results are given in words; binding and its absence hold for the method and conditions named. Binding seen in cells or lysates may run through a third protein. Here binding means that the protein was enriched with, or labelled near, the bait; the list need not be complete.

Molecular target: SISTER OF FCA (SSF)-GFP (Arabidopsis thaliana)
Assay: affinity purification with mass spectrometry; immunoprecipitation with GFP antibody from ssf-2 proSSF:SSF-GFP transgenic plants, then mass spectrometry; Col-0 as control

binding: binds
B1: Protein arginine methyltransferase 5 (PRMT5, SKB1), endogenous (protein, UniProt Q8GWT4 1-642)
chain: MPLGERGGWERTESRYCGVETDFSNDVTHLLNFNISTGGFDYVLAPLVDPSYRPSLVEGNGVDTQVLPVCGSDLVLSPSQWSSHVVGKISSWIDLDSEDEVLRMDSETTLKQEIAWATHLSLQACLLPTPKGKSCANYARCVNQILQGLTTLQLWLRVPLVKSEGDSMDDTSEGLNDSWELWNSFRLLCEHDSKLSVALDVLSTLPSETSLGRWMGESVRAAILSTDAFLTNARGYPCLSKRHQKLIAGFFDHAAQVVICGKPVHNLQKPLDSSSEGTEKNPLRIYLDYVAYLFQKMESLSEQERIELGYRDFLQAPLQPLMDNLEAQTYETFERDSVKYIQYQRAVEKALVDRVPDEKASELTTVLMVVGAGRGPLVRASLQAAEETDRKLKVYAVEKNPNAVVTLHNLVKMEGWEDVVTIISCDMRFWNAPEQADILVSELLGSFGDNELSPECLDGAQRFLKPDGISIPSSYTSFIQPITASKLYNDVKAHKDLAHFETAYVVKLHSVAKLAPSQSVFTFTHPNFSTKVNNQRYKKLQFSLPSDAGSALVHGFAGYFDSVLYKDVHLGIEPTTATPNMFSWFPIFFPLRKPVEVHPDTPLEVHFWRCCGSSKVWYEWSVSSPTPSPMHNTNGRSYWVGL
